From publication PMC7862700 come the findings set out here.

Some of the results follow. The source does not settle which construct or isoform was used.

This test addresses T1, ELF2 (UniProt Q15723).
T1 sequence: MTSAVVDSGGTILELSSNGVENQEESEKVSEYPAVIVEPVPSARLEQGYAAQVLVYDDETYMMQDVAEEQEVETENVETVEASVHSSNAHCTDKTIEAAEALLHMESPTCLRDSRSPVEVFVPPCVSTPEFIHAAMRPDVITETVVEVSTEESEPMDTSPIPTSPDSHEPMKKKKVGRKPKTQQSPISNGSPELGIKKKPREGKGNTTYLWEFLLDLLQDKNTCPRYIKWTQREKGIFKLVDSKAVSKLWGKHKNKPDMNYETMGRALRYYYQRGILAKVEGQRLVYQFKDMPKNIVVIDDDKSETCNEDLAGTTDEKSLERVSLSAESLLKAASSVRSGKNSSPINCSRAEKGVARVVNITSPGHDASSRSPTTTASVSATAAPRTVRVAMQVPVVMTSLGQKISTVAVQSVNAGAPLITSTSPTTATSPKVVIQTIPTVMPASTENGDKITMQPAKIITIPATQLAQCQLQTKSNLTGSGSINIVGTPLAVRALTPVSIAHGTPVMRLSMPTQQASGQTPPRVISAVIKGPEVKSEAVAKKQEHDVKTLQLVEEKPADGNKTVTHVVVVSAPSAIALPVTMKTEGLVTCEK
In words: DAPPL (digital affinity profiling via proximity ligation, sequencing). The note with it: 10 mM Tris-HCl pH 7.5, 50 mM NaCl, 1 mM DTT, 4% glycerol, room temperature, 30 min; GST-TFs on glutathione beads, 16-mer random dsDNA library, 0.1% …; high values mean tight binding; double strand, one strand shown; scale: fold enrichment (6-mer frequency, TF over GST control).
The sequence TAATGA registered a binding signal of 1.12. Next, ACTTAT: 1.34.

GTATAT displayed a binding signal of 1.18. Then CTGCTA, with 1.34. The sequence AACATA displayed a binding signal of 1.23. TATGCG returned a binding signal of 1.36.

On to CGTTAA, for which the binding signal was 1.1. Next, TACATT: 1.18; TCTACT: 1.42. Then AATAAC, with 1.34. As for TCTCGG, the binding signal stood at 1.33. TTACGA displayed a binding signal of 1.12. As to GATTTC, the binding signal came to 2.07.

Consider TTATTG, for which the binding signal came out at 1.24.

Turning to AAGTCC, the binding signal was found to be 1.41. ACTAGC came in with a binding signal of 1.17. Next, TATTCA: 1.23. Next, TCCTCC: 1.51; GGTATA: 1.08. ACTTCC came in with a binding signal of 13.3.

The sequence CAGCTT yielded a binding signal of 1.26. Turning to TTAGAA, the binding signal worked out at 1.04. In the case of CTGAAT, the binding signal was 1.34.

Regarding CTAAAG, the binding signal is 1.31. AATCAA: the binding signal is 1.14. Regarding ATTTGG, the binding signal turned out to be 1.33. Then ACATCT, with 1.25; and GAAGTT, with 2.12. ATGAGC: the binding signal turned out to be 1.16. Then CTTGGT, with 1.36; and TCGTAC, with 1.08; and CAAAAA, with 1.11. As for GCTATT, the binding signal amounted to 1.3. Then TACCAA, with 1.1; and GCTCGT, with 1.07; and TTGCAT, with 1.34.

CTAATA gave a binding signal of 1.13.

Consider TGTGCT, for which the binding signal worked out at 1.13.

GGTATT: the binding signal was 1.28.
